Test results: PubChem BioAssay AID2284356 (EPA ToxCast)
The inconclusive results got no clear call from the source; some entries with a clear call stand among them for comparison. Potencies beside an inconclusive call are fits to weak or partial responses and may not hold up. Activity calls are given as the source filed them. How the source made its calls: active means hit-call score of the fitted dose curve at least 0.9, where 1 is the maximum; inconclusive means response in the unintended direction; inactive means score below 0.9.

The chains behind the UniProt entries cited, without tags or fusion partners. Where a name states a change or a piece, a line headed by the entry shows the natural chain unless it says otherwise.
UniProt P57717: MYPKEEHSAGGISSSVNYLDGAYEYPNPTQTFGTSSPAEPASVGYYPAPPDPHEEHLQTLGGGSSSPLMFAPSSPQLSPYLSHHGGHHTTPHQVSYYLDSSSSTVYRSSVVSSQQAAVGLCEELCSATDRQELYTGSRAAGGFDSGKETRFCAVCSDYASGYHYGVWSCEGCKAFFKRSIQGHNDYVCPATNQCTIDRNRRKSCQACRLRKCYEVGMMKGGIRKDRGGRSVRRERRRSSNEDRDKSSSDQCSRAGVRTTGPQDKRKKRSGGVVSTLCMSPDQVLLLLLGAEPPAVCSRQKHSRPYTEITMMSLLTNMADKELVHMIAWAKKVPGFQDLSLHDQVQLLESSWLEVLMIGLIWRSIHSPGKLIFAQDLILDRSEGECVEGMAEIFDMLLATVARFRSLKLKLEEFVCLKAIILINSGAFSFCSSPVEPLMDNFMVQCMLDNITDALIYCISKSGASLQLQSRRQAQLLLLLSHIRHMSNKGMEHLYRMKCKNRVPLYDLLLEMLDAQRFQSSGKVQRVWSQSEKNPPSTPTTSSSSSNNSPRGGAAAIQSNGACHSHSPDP

molecular target: zebrafish Estrogen Receptor (ER1), esr1 (gene 259252) (UniProt P57717); test: ATG_zfER1_EcoTox2: Attagene TRANS-FACTORIAL EcoTox-2 HepG2 Assay for zebrafish Estrogen Receptor (ER1)
Experimental: ATG_EcoTox2 is a cell-based, multiplexed assay created by modifying the existing Attagene TRANS-FACTORIAL system to include a panel of nuclear receptors from some or all the following species: human (Homo sapiens), african clawed frog (Xenopus laevis), rainbow trout (Oncorhynchus mykiss), japanese medaka (Oryzias latipes), and zebrafish (Danio rerio). The ECOTOX2-FACTORIAL format uses HepG2, a human liver cell line, with measurements taken at 24 hours after chemical dosing in a 24-well plate. ATG_zfER1_EcoTox2 is one of 29 assay components calculated in the ATG_EcoTox2 assay. It is designed to make measurements of mRNA induction, a form of inducible reporter, as detected with fluorescence intensity signals by Reverse transcription polymerase chain reaction (RT-PCR) and Capillary electrophoresis technology.The assay endpoint ATG_zfER1_EcoTox2 was analyzed in the positive analysis fitting direction relative to DMSO as the negative control and baseline of activity. Using a type of inducible reporter, measures of mRNA for gain-of-signal activity can be used to understand the reporter gene at the transcription factor-level as they relate to the gene ER. Furthermore, this assay endpoint can be referred to as a primary readout, because this assay has produced multiple assay endpoints where this one serves a reporter gene function. To generalize the intended target to other relatable targets, this assay endpoint is annotated to the nuclear receptor intended target family, where the subfamily is steroidal.
Human liver HepG2 cells are transiently transfected with multiple reporter transcription units (MRTUs) in 6-well plates using FuGene 6 reagent (Roche; 3 ml FuGene/1 mg DNA). The MRTU constructs are regulated by a cis-regulating element (promoter). Each RTU expresses a GAL4-UAS that regulates the transcription of a nearby target reporter gene sequence. A major difference between the CIS and TRANS system is that in CIS activities of endogenous TFs are measured, whereas the TRANS assay evaluates changes in activities of exogenous, chimeric NR-Gal4 proteins. […] At the end of 24 hour incubation, total RNA was isolated using TriZol reagent (Invitrogen). The isolated RNA is then reverse-transcribed using oligo(dT) primer and Mo-MLV reverse transcriptase (Invitrogen) with DNAse I (Ambion) treatment for 30 min. The one-tenth of the produced cDNA was amplified by PCR using Taq DNA polymerase (Invitrogen) and two reporter sequence-specific primers. The PCR products were fluorescently labeled by primer extension with 6-arboxyfluorescein (6-FAM) 5'-labeled reporter sequence-specific primer (2 min at 95 C, 20 s at 68 C and 10 min at 72 C) and these products were digested with 5U of HpaI (New England Biolabs) for 2h at 37 C. The fragments were purified using Qiaquick PCR columns (Qiagen), analyzed on an ABI 3130xL genetic analyzer (Applied Biosystems) with peak positions identified by using a set of X-rhodamine (ROX)-labeled MapMarker1000 molecular weight standards (BioVentures). The raw capillary electrophoresis data was processed using Attagraph software (Attagene).

Compound | outcome | AC50
CC(c1cc2ccccc2s1)N(O)C(N)=O (stereo not drawn) | inactive | –
CC(C)(Oc1ccc(CCNC(=O)c2ccc(Cl)cc2)cc1)C(=O)O | inactive | –
CC(C)OC(=O)C(C)(C)Oc1ccc(C(=O)c2ccc(Cl)cc2)cc1 | inactive | –
C[C@]12C=CC(=O)C=C1CC[C@@H]1[C@@H]2C(=O)C[C@@]2(C)[C@H]1CC[C@]2(O)C(=O)CO | inactive | –
CN(CCOc1ccc(CC2SC(=O)NC2=O)cc1)c1ccccn1 (stereo not drawn) | – | inconclusive: 4.57 nM
Cc1c(C)c2c(c(C)c1O)CCC(C)(COc1ccc(CC3SC(=O)NC3=O)cc1)O2 (stereo not drawn) | – | inconclusive: 217 nM
Cc1cccc(Nc2cc(Cl)nc(SCC(=O)O)n2)c1C | – | inconclusive: 100000 nM
Cc1nc(-c2ccc(C(F)(F)F)cc2)sc1C(=O)NCc1ccc(OC(C)(C)C(=O)O)cc1 | – | inconclusive: 274 nM
